# The supplement of paper PMC12067093, “Discovery and optimisation of a covalent ligand for TRIM25 and its application to targeted protein ubiquitination” (Chemical Science, 2025)
# Chains of the proteins cited; added tags and fusions are not shown. Lines headed by an entry give the natural chain unless they say otherwise; changes in a name come on top.
# UniProt Q9NP81: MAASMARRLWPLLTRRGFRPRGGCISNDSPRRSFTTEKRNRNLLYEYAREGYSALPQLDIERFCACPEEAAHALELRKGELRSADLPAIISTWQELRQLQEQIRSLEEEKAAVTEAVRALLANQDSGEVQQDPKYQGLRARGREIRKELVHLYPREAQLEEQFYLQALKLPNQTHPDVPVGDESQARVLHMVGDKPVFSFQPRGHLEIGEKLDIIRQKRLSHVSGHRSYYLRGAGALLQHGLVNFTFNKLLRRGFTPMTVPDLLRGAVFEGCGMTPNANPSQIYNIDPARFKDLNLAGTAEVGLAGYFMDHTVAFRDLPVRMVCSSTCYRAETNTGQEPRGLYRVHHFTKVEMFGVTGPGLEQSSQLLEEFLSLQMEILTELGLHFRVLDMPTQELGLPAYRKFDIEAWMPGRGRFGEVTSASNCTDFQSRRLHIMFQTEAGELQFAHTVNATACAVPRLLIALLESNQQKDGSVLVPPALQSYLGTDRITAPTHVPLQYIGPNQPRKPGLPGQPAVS
# UniProt P49591: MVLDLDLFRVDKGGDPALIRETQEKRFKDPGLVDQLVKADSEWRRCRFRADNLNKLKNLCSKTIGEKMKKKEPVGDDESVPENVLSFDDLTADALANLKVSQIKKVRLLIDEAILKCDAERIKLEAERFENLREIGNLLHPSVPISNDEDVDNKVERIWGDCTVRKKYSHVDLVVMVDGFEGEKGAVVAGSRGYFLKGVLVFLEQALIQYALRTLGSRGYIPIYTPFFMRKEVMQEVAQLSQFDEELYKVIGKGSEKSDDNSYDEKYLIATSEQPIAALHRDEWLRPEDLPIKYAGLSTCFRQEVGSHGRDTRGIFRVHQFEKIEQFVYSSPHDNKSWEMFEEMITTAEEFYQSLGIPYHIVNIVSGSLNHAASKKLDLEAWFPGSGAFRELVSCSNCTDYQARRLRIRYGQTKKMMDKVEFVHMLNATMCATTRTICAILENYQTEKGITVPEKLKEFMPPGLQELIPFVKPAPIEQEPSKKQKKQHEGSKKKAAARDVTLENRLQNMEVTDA
# The other results are listed elsewhere or left out.
# Key:
# Test in all cases: probe-labelled cysteine peptide fold change vs DMSO (competition) (log2 fold change); higher = less target engagement (more negative = stronger competition)
# Settings in all cases: THP-1, incubation time: 4 h
# [1] = molecular target: SARS2_Q9NP81_425_FGEVTSASNCTDFQSR (UniProt Q9NP81)
# [2] = molecular target: SARS2_Q9NP81_64_FCACPEEAAHALELR (UniProt Q9NP81)
# SARS_P49591_162_IWGDCTVR = SARS_P49591_162_IWGDCTVR (UniProt P49591)
# [3] = molecular target: SARS_P49591_395+398_ELVSCSNCTDYQAR (UniProt P49591)
# [4] = molecular target: SARS_P49591_395_ELVSCSNCTDYQAR (UniProt P49591)
# [5] = molecular target: SARS_P49591_398_ELVSCSNCTDYQAR (UniProt P49591)
# [6] = molecular target: SARS_P49591_431_VEFVHMLNATMCATTR (UniProt P49591)
# [7] = molecular target: SARS_P49591_438_TICAILENYQTEK (UniProt P49591)
# 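Further: competitive profiling in live THP-1 cells: cysteine peptides tagged with an iodoacetamide desthiobiotin (IA-DTB) probe, intensity after compound treatment relative to DMSO-treated cells.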
smiles,measurement,setting,value
Cc1cc(C(=O)N2CCCN(C(=O)CCl)CC2)ccc1-c1ccccc1 [compound 10],probe-labelled cysteine peptide fold change,[1]; 10 µM,-0.265
same,probe-labelled cysteine peptide fold change,[1]; 50 µM,-0.119
same,probe-labelled cysteine peptide fold change,[2]; 10 µM,-0.325
same,probe-labelled cysteine peptide fold change,[2]; 50 µM,-0.305
same,probe-labelled cysteine peptide fold change,SARS_P49591_162_IWGDCTVR; 10 µM,0.0369
same,probe-labelled cysteine peptide fold change,SARS_P49591_162_IWGDCTVR; 50 µM,0.0952
same,probe-labelled cysteine peptide fold change,[3]; 10 µM,-0.202
same,probe-labelled cysteine peptide fold change,[3]; 50 µM,-0.287
same,probe-labelled cysteine peptide fold change,[4]; 10 µM,0.0595
same,probe-labelled cysteine peptide fold change,[4]; 50 µM,0.0655
same,probe-labelled cysteine peptide fold change,[5]; 10 µM,0.0991
same,probe-labelled cysteine peptide fold change,[5]; 50 µM,0.119
same,probe-labelled cysteine peptide fold change,[6]; 10 µM,0.142
same,probe-labelled cysteine peptide fold change,[6]; 50 µM,0.182
same,probe-labelled cysteine peptide fold change,[7]; 10 µM,0.149
same,probe-labelled cysteine peptide fold change,[7]; 50 µM,0.143

# Two entries from above in a different format:
smiles | measurement | setting | value
Cc1cc(C(=O)N2CCCN(C(=O)CCl)CC2)ccc1-c1ccccc1 [compound 10] | probe-labelled cysteine peptide fold change | [2]; 50 µM | -0.305
same | probe-labelled cysteine peptide fold change | SARS_P49591_162_IWGDCTVR; 50 µM | 0.0952
